Measured values reported in publication PMC5006001.

Chains of the proteins cited; added tags and fusions are not shown. Residues count along the entry.
UniProt P17156: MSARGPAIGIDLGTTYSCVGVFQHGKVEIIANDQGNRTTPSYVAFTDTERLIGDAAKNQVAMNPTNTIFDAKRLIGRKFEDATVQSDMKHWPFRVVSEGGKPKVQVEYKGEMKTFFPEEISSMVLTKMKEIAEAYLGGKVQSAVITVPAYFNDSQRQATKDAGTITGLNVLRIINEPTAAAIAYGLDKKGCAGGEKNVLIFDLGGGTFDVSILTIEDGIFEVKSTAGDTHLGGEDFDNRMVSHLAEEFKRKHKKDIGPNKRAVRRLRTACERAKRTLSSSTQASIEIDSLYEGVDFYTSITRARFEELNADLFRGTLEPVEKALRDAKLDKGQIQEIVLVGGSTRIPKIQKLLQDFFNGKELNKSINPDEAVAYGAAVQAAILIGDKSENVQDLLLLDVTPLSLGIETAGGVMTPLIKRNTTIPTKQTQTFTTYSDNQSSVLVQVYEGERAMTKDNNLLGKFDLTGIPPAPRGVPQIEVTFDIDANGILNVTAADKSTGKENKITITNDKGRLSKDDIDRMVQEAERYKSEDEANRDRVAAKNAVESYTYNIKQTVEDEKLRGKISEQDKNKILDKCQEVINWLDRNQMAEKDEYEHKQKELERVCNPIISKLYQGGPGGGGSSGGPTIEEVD
UniProt P20029, residues 20-655: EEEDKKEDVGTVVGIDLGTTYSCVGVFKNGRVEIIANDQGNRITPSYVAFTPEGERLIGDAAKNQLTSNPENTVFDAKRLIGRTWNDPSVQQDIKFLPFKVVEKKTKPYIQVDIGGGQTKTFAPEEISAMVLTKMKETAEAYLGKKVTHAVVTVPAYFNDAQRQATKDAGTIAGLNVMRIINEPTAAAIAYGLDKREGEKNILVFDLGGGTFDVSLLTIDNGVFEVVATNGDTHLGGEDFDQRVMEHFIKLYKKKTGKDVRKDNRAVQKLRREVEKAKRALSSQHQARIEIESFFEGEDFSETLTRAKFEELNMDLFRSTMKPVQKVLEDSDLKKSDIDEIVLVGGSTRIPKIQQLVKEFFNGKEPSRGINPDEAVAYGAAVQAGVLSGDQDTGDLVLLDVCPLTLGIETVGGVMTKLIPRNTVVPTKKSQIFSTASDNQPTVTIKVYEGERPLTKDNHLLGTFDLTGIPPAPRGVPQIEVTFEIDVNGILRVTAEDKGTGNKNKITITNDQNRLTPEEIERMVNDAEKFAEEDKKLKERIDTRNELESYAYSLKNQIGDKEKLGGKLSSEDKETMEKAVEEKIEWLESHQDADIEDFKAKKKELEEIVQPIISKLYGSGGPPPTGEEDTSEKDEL

Assays:
[1] = biological target: T1, Trf2 tagged on its C-terminus with a 6xHis-Tev-3xFlag tag (mouse (endogenous in testis, knock-in allele)) (UniProt P62340); test: affinity purification with mass spectrometry; tandem Flag-His purification of tagged Trf2 from pooled gel filtration fractions B3-B7; SDS-PAGE, silver staining, gel sections excised and analysed by mass spectrometry; WT testis as control
T1 sequence: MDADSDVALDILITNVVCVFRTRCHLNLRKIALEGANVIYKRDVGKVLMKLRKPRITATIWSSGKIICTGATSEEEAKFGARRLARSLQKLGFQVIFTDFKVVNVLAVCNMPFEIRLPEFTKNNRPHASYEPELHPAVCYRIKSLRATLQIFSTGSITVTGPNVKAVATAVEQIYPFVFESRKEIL

[2] = biological target: T1, Trf2 tagged on its C-terminus with a 6xHis-Tev-3xFlag tag (mouse (endogenous in testis, knock-in allele)); test: as above; remark: listed apart in the source

**Q.** With Hspa2 (from UniProt P17156 1-633) as the molecule, how does the binding [1] read?
**A.** binds

**Q.** For Hspa5 (from UniProt P20029 20-655), which binding [1] is on record?
**A.** binds

B1: ALF (TFIIA-like factor) (protein, UniProt Q8R4I4 1-468)
chain: MAFINLVPKLYQSVIEDVIEGVRDLFAEEGIEEQVLKDLKKLWETKVLQSKATEDFFRNSTQVPLLTLQLPHALPPALQPEASLLIPAGRTLPSFTPEDLNTANCGANFAFAGYPIHVPAGMAFQTASGHLYKVNVPVMVTQTSGRTEILQHPFQQVLQQLGQPLVIQTTVPTLHPCSLQAATEKSLRMEAVLQPPPILHPPPVDRTHVENAASDRRLLPGNELRPQESSPYLSLPGVGFPPQAALTESSLEPVLGVSASLTQNLHSDPFSQGPPGPLHHHLLESQLQSLKDSIYGCDSTKQLRKAEEPSSLRVSEKNCTSERDLNIRVTDDDINEIIQIDGTGDNSSTEEMGSIRDADENEFPGIIDAGDLNVLEEVDSVSNEDSTANSSDNEDHQINAPEEDPLNSGDDVSEQDVPDLFDTENVIVCQYDKIHRSKNRWKFYLKDGVMCFGGRDYVFAKAIGEAEW
**Q.** For B1, which binding [2] is on record?
**A.** binds

Where two headings read alike, the source gives them in different places. Results are given in words; binding and its absence hold for the method and conditions named. In cells and extracts the contact can be indirect. These calls come from enrichment with a bait or labelling near it, and not all partners need be listed. Where a sequence is shown, tags or fusion partners need not be part of it.
